Results deposited as PubChem BioAssay AID652272 (Drosophila RNAi Screening Center, 2013)

Test: 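Genes whose knock-down decreases or increases Hedgehog reporter output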 (primary screen)
Cells: Drosophila clone 8 (Cl8) cells
Reagents: long dsRNA against Drosophila genes
Read-out: 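Firefly light from a Hedgehog-responsive ptc promoter reporter and Renilla reference light, both read on a plate reader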
Direction: firefly Hh reporter signal: higher = more ptc reporter light; Renilla reference signal: higher = more Renilla control light
Active means: 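Hit when the z-score averaged over two replicates is under -2 or over +3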
Calls: active = hit: reporter lowered or raised; inactive = not a hit
The screen tested about 21,000 reagents; this is a random part of those with a known target gene and a result. Of all reagents, 503 (2.4%) are marked active. 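Raw plate light values, not normalised; calls rest on replicate z-scores that were not deposited; hits include reporter decreases as well as increases.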 Names joined by + are all predicted targets of the reagent. Not stated in the record: the amount of reagent, the time to read-out.

predicted target	dsRNA	firefly Hh reporter signal, replicate 1	firefly Hh reporter signal, replicate 2	firefly Hh reporter signal, replicate 3	Renilla reference signal, replicate 1	Renilla reference signal, replicate 2	call
Tbc1d15-17 (TBC1 domain family member 15/17)	DRSC00313	1.25e5	39840		5096	2632	inactive
CG12071	DRSC14471	40992	35996		1341	1899	inactive
Hexo2 (Hexosaminidase 2)	DRSC18671	87122	3.07e5		2964	10324	inactive
CG12483	DRSC08278	99888	41302		3419	3138	inactive
AsnRS-m (Asparaginyl-tRNA synthetase, mitochondrial)	DRSC07010	79952	53993		2387	3860	inactive
alpha-Est7 (alpha-Esterase-7)	DRSC12619	5.42e5	67780		2933	2933	inactive
Myt1	DRSC11228	60768	21061		6034	2308	inactive
CG31145	DRSC13634	40167	1.73e5		9979	4025	inactive
CG31145	DRSC14206	4.92e5	93568		29108	3308	inactive
CG31145	DRSC14670	2.08e5	17559		15287	1040	active
CG31145	DRSC14671	4.59e5	1.23e5		25969	3664	inactive
CNPYb (Canopy b)	DRSC09845	69728	51099		3369	2178	inactive
hyd (hyperplastic discs)	DRSC16971	78592	1.32e5		1610	3741	inactive
eIF3l (eukaryotic translation initiation factor 3 subunit l)	DRSC10530	41940	49696	77154	3658	4344	inactive
icln	DRSC07630	83283	43232		2262	3368	inactive
MESR4 (Misexpression suppressor of ras 4)	DRSC06901	61527	47653		1237	2181	active
ssp6 (short spindle 6)	DRSC08791	1.46e5	2.46e5		4176	11092	inactive
ssp6 (short spindle 6)	DRSC10677	22225	35260		3880	2936	inactive
Dph4 (Diphthamide biosynthesis 4)	DRSC12318	61441	90380		2320	2589	inactive
CG2604	DRSC12313	1.01e5	1.18e5		4029	3509	inactive
CG5455	DRSC15805	81296	1.04e5		1921	2826	inactive
CG1958	DRSC18196	1.00e5	2.59e5		3512	9863	inactive
kmg (kumgang)	DRSC02829	1.30e5	43067		3251	4038	inactive
Rbp9 (RNA-binding protein 9)	DRSC00416	92883	71380		1579	6650	inactive
Rbp9 (RNA-binding protein 9)	DRSC00779	53821	38007		3003	1979	inactive

An excerpt of the results above, for reference:
predicted target	dsRNA	firefly Hh reporter signal, replicate 1	firefly Hh reporter signal, replicate 2	firefly Hh reporter signal, replicate 3	Renilla reference signal, replicate 1	Renilla reference signal, replicate 2	call
AsnRS-m (Asparaginyl-tRNA synthetase, mitochondrial)	DRSC07010	79952	53993		2387	3860	inactive
alpha-Est7 (alpha-Esterase-7)	DRSC12619	5.42e5	67780		2933	2933	inactive
Myt1	DRSC11228	60768	21061		6034	2308	inactive

Further records:
predicted target	dsRNA	firefly Hh reporter signal, replicate 1	firefly Hh reporter signal, replicate 2	firefly Hh reporter signal, replicate 3	Renilla reference signal, replicate 1	Renilla reference signal, replicate 2	call
Prp4k (Pre-mRNA processing factor 4 kinase)	DRSC08144	62665	40055		3368	2243	inactive
CG6610	DRSC10674	77291	43417		9284	3493	inactive
ItgaPS5 (Integrin alphaPS5 subunit)	DRSC04501	1.30e5	77670		3061	6834	inactive
CG18284	DRSC02661	1.29e5	1.28e5		5162	4768	inactive
CG18284	DRSC20756	5.59e5	2.37e5		33481	5700	inactive
CG31638	DRSC02269	68931	42837		1621	4672	inactive
CG31638	DRSC03259	59921	45464		1248	4439	inactive
woc (without children)	DRSC15928	93660	63116		2144	1657	inactive
CG15443	DRSC00455	1.15e5	52648		3436	4289	inactive
mei-217 + mei-218	DRSC20349	74530	1.63e5		1431	6979	inactive
CG14132	DRSC10136	68865	45719	74325	4833	5788	inactive
gkt (glaikit)	DRSC00821	1.20e5	61104		3088	6733	inactive
lectin-46Cb	DRSC06611	1.46e5	52666		3207	3861	inactive
CG12479	DRSC19459	55909	2.06e5		2102	10540	inactive
CG11807	DRSC06087	91804	77267		3408	3072	inactive
CG4942	DRSC10462	1.00e5	83556		4301	3553	inactive
PolE2 (DNA polymerase epsilon subunit 2)	DRSC09737	66707	52680		4116	2635	inactive
Sbp2 (SECIS-binding protein 2)	DRSC10766	84954	88471		3606	3465	inactive
CG16711	DRSC10220	37549	55100	52449	5547	3387	inactive
Rtca (RNA 3'-terminal phosphate cyclase)	DRSC18517	1.46e5	95768		2930	3344	inactive
sni (sniffer)	DRSC17770	92763	77748		2242	1944	inactive
wds (will die slowly)	DRSC18852	81587	1.66e5		2609	5067	inactive
CG13616	DRSC14619	5.50e5	1.01e5		27990	3581	inactive
Gas41	DRSC03156	49445	35979		2045	1703	inactive
Su(fu) (Suppressor of fused)	DRSC16871	2.00e5	1.19e5		5297	3117	active
loaf (lost and found)	DRSC09130	1.06e5	1.62e5		2744	6569	inactive
CG4704	DRSC15628	6.63e5	96723		30326	2490	inactive
CG13041	DRSC09922	1.55e5			5072	4331	inactive
CG2201	DRSC03721	95744	53324		3355	2141	inactive
CG12517	DRSC02173	62744	63490		1937	4613	inactive
CG15754	DRSC19719	56828	2.17e5		1369	7861	inactive
Cyp6a21 (Cytochrome P450 6a21)	DRSC07381	1.17e5	62230		2509	4761	inactive
